Test results published in article PMC11475408, “All‐Inorganic Polyoxometalates Act as Superchaotropic Membrane Carriers” (Advanced Materials (Deerfield Beach, Fla.), 2023).

Key:
Assay type in all cases: binding
heptaarginine = assay: ITC, POM into heptaarginine; settings: 10 mM Tris; for n (ITC stoichiometry), heptaarginine: pH 7.4, 298.15 K, one-set-of-sites, duplicates, 5% error; for T∆S, heptaarginine / ∆H, heptaarginine: ITC, pH 7.4, error 0.5
Procedure: (§1) All experiments were performed with a VP‐ITC MicroCalorimeter from MicroCal, Int,. at atmospheric pressure and 298.15 K. Solutions were degassed and thermostatic prior to the titration experiments in a ThermoVac accessory. A constant volume of POM ([PVW11]^4‒ or [SiMoW11]^4‒) (10 µL per injection) was injected into the oligopeptide solution (heptaArg, protamine, polyArg or heptaLys) in 10 mM Tris, pH 7.4 to determine the apparent binding affinity of [PVW11]^4‒ and [SiMoW11]^4‒ with the oligopeptides. Dilution heats were determined by titration of the POM into buffer and subtracted from the reaction heat. The neat reaction heat was fitted with Origin 7.0 software by using the “one‐set‐of‐sites” model to obtain the complex stability constant (K a) and molar reaction enthalpy (∆H°). The free energy (∆G°) and entropy changes (∆S°) were obtained according to the relation: ∆G° = −RTlnK a = ∆H°−T∆S°.
(§2) 4. Supramolecular interactions
(§3) Figure S10. Microcalorimetric titrations in 10 mM Tris, pH 7.4: Raw ITC data (top) for the sequential injections of POM solution into an oligoarginine solution, and apparent reaction heats (bottom) obtained from the integration of the calorimetric traces. […]
(§4) values and ± 0.5 kcal mol‒1 for ΔH and TΔS (duplicate measurements). Note that none of these interactions lead to any precipitation or aggregates, confirmed by the absence of any detectable signal by DLS. […]
(§5) Figure S11. Microcalorimetric titrations in 10 mM Tris, pH 7.4: Raw ITC data (top) for the sequential injections of POM solution into a heptalysine solution, and apparent reaction heats (bottom) obtained from the integration of the calorimetric traces. POM/heptalysine concentrations in µM: a, 200/8 and b, 150/10. Error data is 5% for the n values and ± 0.5 kcal mol‒1 for ΔH and TΔS (duplicate […]
(§6) Table S6. Binding constants (Ka in M‒1) and thermodinamic data (in kcal mol‒1) measured for the complex formation between the stable and active POMs and oligoarginines in 10 mM Tris, pH 7.4. a) […]
(§7) a) Error data is 5% for the n values and ± 0.5 kcal mol‒1 for ΔH and TΔS (duplicate measurements).

protamine = assay: ITC, POM into protamine; settings: 10 mM Tris; for T∆S, protamine / ∆H, protamine: pH 7.4; for n, protamine: pH 7.4, duplicates
Procedure: as §1, §2, §3, §4, §5, §6, §7

polyarginine = assay: ITC, POM into polyarginine; settings: 10 mM Tris; for T∆S, polyarginine / ∆H, polyarginine: pH 7.4; for n, polyarginine: pH 7.4, duplicates
Procedure: as §1, §2, §3, §4, §5, §6, §7

heptalysine = assay: ITC, POM into heptalysine; settings: 10 mM Tris; for n, heptalysine: pH 7.4, duplicates
Procedure: as §1, §5, §6
a) Error data is 5% for the n values and ± 0.5 kcal mol‒1 for ΔH and TΔS (duplicate measurements). […]

Substance | n (ITC stoichiometry), heptaarginine (heptaarginine; listed as [PVW11]4‒) | n (ITC stoichiometry), heptaarginine (heptaarginine; listed as [PVW11]^4−) | T∆S, heptaarginine (heptaarginine) | ∆H, heptaarginine (heptaarginine) | T∆S, protamine (protamine) | ∆H, protamine (protamine) | n, protamine (protamine) | T∆S, polyarginine (polyarginine) | ∆H, polyarginine (polyarginine) | n, polyarginine (polyarginine) | T∆S, heptalysine (heptalysine; pH 7.4) | ∆H, heptalysine (heptalysine; pH 7.4) | n, heptalysine (heptalysine) | n (ITC stoichiometry), heptaarginine (heptaarginine)
K4[α‐P^VV^VW^VI 11O40]·4H2O [[PVW11]^4‒] | 0.90 | 0.9 | −12.8 kcal mol‒1 | −23.4 kcal mol‒1 | −11.3 kcal mol‒1 | −23.8 kcal mol‒1 | 3.1 | −12.5 kcal mol‒1 | −22.8 kcal mol‒1 | 6.7 | −5.2 kcal mol‒1 | −15.4 kcal mol‒1 | 2.0 | 
K4[α‐Si^IVMo^VIW^VI 11O40]·24H2O [[SiMoW11]^4‒] |  |  | −14.4 kcal mol‒1 | −23.7 kcal mol‒1 | −16.9 kcal mol‒1 | −26.8 kcal mol‒1 | 3.2 | −16.7 kcal mol‒1 | −26.5 kcal mol‒1 | 6.1 |  | −16.8 kcal mol‒1 | 1.9 | 1.1
